PubChem BioAssay AID1259308 – NCATS | 2017
Shown is a random part of about 59,000 reagents tested. About 1,510 of them (2.6%) count as active. 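Calls use total luciferase alone and ignore viability, so some active siRNAs may act by altering cell number.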 Unmarked entries are inactive. Reagents against one gene are numbered here.

Purpose: 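Knock-downs that increase output of a recombinant reporter protein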 (primary screen)
Cells: human HEK293 embryonic kidney cells stably expressing firefly luciferase (HEK-CMV-Luc2-Hygro)
Reagents: single siRNA against human genes, 0.8 pmol siRNA per well
Duration: 72 h
Detection: 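Luciferase light (ONE-Glo) measured on one replicate plate set and viability (CellTiter-Glo) on the other, scaled to a negative control siRNA, with robust z-scores and luciferase per cell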
Reading the numbers: total luciferase, z-score and total luciferase, % of control: higher = more reporter protein produced; luciferase per cell, z-score: higher = more reporter output per viable cell; viable cells, % of control: higher = more viable cells
Rule for the call: 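An siRNA counts as active if its total luciferase robust z-score exceeds 3; genes with two or more such siRNAs out of three were retested with fresh siRNAs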
Meaning of the calls: active = raised luciferase; inactive = no rise

| gene | siRNA no. | total luciferase, z-score | total luciferase, % of control | luciferase per cell, z-score | viable cells, % of control |
| --- | --- | --- | --- | --- | --- |
| CPED1 | 1 | 1.93 | 120 | 1.22 | 97.4 |
| CPED1 | 2 | 0.185 | 85.6 | 0.724 | 79 |
| CPED1 | 3 | 1.99 | 121 | 1.13 | 101 |
| DDX39A | 1 | 0.307 | 88 | 0.896 | 77.6 |
| DDX39A | 2 | -0.877 | 64.4 | -1.09 | 96 |
| DDX39A | 3 | -0.767 | 66.6 | -0.756 | 90.9 |
| NXF1 | 1 | -2.39 | 34.3 | 0.6 | 32.8 |
| NXF1 | 2 | -2.59 | 30.3 | -0.276 | 36.4 |
| NXF1 | 3 | -1.46 | 52.9 | -1.35 | 84.3 |
| MS4A10 | 1 | 0.345 | 88.7 | -0.196 | 104 |
| MS4A10 | 2 | -3.07 | 20.8 | -3.85 | 64.1 |
| MS4A10 | 3 | -0.0407 | 81.1 | -0.491 | 103 |
| PRKAA1 | 1 | -0.0012 | 81.9 | -0.329 | 99.7 |
| PRKAA1 | 2 | -1.32 | 55.6 | -0.641 | 73.5 |
| PRKAA1 | 3 | -2.2 | 38.1 | -1.87 | 69.5 |
| MCM10 | 1 | -0.145 | 79 | 0.579 | 75.8 |
| MCM10 | 2 | 0.427 | 90.4 | 1.17 | 74.2 |
| MCM10 | 3 | 1.2 | 106 | 0.809 | 95.5 |
| KCNA2 | 1 | 0.25 | 86.9 | 0.354 | 88.4 |
| KCNA2 | 2 | -0.285 | 76.2 | -0.597 | 99.7 |
| KCNA2 | 3 | -1.06 | 60.9 | 0.0529 | 67.1 |
| ANAPC1 | 1 | -0.227 | 77.4 | -0.755 | 105 |
| ANAPC1 | 2 | -1 | 61.9 | -1.52 | 103 |
| ANAPC1 | 3 | -0.134 | 79.2 | -1.02 | 116 |
| DCAF6 | 1 | 2.3 | 128 | 1.86 | 87.4 |
| DCAF6 | 2 | 0.861 | 99 | 0.136 | 107 |
| DCAF6 | 3 | 0.0854 | 83.6 | 0.567 | 80.5 |
| OTUD6A | 1 | -0.897 | 64 | -0.895 | 90.6 |
| OTUD6A | 2 | 0.12 | 84.3 | 0.393 | 84.9 |
| OTUD6A | 3 | -0.0205 | 81.5 | -0.506 | 104 |
| COX7A2 | 1 | -0.357 | 74.8 | -1.1 | 112 |
| COX7A2 | 2 | 0.393 | 89.7 | 0.291 | 92.9 |
| COX7A2 | 3 | 0.663 | 95.1 | 0.482 | 93.6 |
| DBNDD1 | 1 | 0.186 | 85.6 | 0.25 | 89.6 |
| DBNDD1 | 2 | 3.48 (active) | 151 | 2.53 | 86.8 |
| DBNDD1 | 3 | -0.279 | 76.3 | -0.475 | 96.7 |
| DENND4C | 1 | -0.433 | 73.3 | -0.818 | 102 |
| DENND4C | 2 | -0.107 | 79.8 | -0.419 | 99.5 |
| DENND4C | 3 | -0.265 | 76.6 | 0.833 | 68.7 |
| TTC33 | 1 | 1.72 | 116 | 0.186 | 124 |
| TTC33 | 2 | -0.559 | 70.8 | -0.261 | 84.7 |
| TTC33 | 3 | -0.0952 | 80 | -0.854 | 112 |
| MTIF2 | 1 | 0.59 | 93.6 | -0.00766 | 105 |
| MTIF2 | 2 | -0.419 | 73.6 | -0.973 | 106 |
| MTIF2 | 3 | 2.08 | 123 | 1.63 | 89.7 |
| SLC25A53 | 1 | -0.76 | 66.8 | 0.113 | 72.4 |
| SLC25A53 | 2 | 0.276 | 87.4 | 0.0834 | 95.5 |
| SLC25A53 | 3 | 1.24 | 107 | 0.684 | 99.5 |
| SLC12A5 | 1 | -1 | 62 | -0.849 | 86.6 |
| SLC12A5 | 2 | -1.33 | 55.5 | -1.18 | 84.7 |
| SLC12A5 | 3 | -0.307 | 75.8 | 1.08 | 63.7 |
| RNF123 | 1 | 0.069 | 83.3 | -0.176 | 97.5 |
| RNF123 | 2 | -0.288 | 76.2 | -0.937 | 109 |
| RNF123 | 3 | -0.197 | 78 | 0.17 | 83.3 |
| APOC4 | 1 | 0.00734 | 82 | 0.76 | 75 |
| APOC4 | 2 | -0.796 | 66.1 | 1.08 | 55.6 |
| APOC4 | 3 | 1.72 | 116 | 1.24 | 93.6 |
